{"sequences": {"note": "Chains of the proteins cited; added tags and fusions are not shown. Lines headed by an entry give the natural chain unless they say otherwise; changes in a name come on top.", "UniProt P10515, whole entry": "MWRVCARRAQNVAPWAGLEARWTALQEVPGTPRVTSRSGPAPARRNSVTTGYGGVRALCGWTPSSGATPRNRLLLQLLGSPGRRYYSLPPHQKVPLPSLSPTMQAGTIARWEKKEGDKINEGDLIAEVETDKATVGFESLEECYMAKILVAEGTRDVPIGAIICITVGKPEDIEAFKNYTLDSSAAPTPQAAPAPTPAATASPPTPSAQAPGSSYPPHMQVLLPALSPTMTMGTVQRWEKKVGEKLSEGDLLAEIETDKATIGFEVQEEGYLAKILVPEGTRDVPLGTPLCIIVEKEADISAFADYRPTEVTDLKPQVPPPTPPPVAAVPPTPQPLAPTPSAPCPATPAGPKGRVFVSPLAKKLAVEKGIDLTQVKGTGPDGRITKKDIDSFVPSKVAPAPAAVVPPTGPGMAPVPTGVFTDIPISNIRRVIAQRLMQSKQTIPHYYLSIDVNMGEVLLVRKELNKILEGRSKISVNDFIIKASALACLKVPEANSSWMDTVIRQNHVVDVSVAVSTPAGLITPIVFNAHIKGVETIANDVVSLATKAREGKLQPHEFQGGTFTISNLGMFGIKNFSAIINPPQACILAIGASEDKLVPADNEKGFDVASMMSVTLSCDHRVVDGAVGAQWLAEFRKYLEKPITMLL", "UniProt Q2TBE0": "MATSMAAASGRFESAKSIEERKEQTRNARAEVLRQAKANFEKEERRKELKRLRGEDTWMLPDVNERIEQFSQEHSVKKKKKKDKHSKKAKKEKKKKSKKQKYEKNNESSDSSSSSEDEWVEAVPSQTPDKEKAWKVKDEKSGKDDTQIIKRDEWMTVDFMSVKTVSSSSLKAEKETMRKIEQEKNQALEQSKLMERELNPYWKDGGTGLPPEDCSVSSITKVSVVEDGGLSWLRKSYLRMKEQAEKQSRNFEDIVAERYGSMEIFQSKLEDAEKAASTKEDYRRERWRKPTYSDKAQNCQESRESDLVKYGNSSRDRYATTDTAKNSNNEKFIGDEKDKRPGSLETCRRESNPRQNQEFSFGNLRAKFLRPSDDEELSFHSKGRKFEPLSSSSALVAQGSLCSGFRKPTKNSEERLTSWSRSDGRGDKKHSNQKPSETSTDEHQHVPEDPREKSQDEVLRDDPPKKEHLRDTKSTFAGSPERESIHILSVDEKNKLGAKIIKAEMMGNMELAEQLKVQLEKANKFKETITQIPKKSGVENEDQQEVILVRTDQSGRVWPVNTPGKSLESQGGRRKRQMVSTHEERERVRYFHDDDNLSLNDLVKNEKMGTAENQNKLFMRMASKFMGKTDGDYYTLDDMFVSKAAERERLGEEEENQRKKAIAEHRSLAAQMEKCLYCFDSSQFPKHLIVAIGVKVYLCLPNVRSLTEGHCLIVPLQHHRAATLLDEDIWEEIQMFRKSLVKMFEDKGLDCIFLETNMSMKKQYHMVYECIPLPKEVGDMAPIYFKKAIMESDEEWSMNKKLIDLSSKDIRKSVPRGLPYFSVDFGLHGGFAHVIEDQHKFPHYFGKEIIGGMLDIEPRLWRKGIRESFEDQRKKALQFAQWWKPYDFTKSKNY", "UniProt O14641": "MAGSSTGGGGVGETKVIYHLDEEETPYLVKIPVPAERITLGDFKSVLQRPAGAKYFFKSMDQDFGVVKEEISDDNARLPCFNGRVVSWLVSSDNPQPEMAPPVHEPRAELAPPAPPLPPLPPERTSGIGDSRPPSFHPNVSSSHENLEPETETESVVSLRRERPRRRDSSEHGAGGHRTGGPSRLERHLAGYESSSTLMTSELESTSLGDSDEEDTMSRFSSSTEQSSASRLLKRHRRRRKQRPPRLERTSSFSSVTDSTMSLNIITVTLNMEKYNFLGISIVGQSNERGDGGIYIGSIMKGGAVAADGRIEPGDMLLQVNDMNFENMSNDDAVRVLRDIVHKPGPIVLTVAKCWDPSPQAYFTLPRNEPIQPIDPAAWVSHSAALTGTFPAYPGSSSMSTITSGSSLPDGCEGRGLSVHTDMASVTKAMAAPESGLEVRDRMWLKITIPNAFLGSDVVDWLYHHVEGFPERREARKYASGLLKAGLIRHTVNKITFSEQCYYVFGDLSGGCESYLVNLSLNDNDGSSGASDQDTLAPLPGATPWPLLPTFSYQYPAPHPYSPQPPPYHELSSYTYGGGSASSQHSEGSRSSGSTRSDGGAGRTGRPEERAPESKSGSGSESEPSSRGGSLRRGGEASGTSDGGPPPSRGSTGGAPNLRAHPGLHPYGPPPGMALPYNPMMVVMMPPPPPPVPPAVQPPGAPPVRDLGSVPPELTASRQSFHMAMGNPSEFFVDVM", "UniProt Q9NTM9": "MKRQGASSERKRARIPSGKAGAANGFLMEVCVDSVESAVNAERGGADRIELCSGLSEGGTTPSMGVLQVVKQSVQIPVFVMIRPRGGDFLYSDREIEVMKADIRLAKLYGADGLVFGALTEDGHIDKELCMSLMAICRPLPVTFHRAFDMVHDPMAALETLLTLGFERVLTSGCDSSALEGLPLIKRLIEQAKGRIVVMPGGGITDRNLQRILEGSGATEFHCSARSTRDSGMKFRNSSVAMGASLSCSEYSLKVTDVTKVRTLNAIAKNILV", "UniProt Q5TDH0": "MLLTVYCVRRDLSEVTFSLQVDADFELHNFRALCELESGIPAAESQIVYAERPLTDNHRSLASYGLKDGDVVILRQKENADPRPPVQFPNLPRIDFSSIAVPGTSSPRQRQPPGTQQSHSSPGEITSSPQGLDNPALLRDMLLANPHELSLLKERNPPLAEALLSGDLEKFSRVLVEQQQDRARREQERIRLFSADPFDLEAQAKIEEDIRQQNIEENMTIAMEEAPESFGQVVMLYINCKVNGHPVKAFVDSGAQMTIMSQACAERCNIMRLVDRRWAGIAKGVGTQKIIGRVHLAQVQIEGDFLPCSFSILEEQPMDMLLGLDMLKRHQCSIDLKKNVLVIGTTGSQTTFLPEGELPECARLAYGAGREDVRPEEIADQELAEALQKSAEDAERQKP", "UniProt Q96JK2, whole entry": "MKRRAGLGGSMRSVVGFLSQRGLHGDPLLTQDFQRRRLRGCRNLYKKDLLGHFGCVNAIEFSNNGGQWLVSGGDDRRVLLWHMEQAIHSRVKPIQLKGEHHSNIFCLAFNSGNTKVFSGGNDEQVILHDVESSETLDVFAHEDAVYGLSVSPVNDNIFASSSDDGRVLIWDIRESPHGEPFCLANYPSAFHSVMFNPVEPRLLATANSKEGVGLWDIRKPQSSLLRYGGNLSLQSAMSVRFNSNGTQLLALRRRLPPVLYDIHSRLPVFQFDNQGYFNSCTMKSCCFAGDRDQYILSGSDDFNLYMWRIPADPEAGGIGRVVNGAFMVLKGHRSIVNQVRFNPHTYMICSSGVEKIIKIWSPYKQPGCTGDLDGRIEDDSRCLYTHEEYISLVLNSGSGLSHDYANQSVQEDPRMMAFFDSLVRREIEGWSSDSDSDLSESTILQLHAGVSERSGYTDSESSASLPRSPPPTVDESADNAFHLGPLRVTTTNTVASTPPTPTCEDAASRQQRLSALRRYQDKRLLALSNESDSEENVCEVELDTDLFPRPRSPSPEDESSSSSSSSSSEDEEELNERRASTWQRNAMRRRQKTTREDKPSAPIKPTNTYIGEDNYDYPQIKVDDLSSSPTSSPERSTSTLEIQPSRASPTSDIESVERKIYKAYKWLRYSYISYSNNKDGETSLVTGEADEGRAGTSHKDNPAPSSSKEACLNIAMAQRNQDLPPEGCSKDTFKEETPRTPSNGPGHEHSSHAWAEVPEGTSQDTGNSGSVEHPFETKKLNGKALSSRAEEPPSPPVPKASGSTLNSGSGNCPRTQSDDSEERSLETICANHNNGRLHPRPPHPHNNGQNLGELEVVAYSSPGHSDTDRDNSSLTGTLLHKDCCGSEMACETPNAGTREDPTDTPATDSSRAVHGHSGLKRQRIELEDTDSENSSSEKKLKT", "UniProt Q6V1X1": "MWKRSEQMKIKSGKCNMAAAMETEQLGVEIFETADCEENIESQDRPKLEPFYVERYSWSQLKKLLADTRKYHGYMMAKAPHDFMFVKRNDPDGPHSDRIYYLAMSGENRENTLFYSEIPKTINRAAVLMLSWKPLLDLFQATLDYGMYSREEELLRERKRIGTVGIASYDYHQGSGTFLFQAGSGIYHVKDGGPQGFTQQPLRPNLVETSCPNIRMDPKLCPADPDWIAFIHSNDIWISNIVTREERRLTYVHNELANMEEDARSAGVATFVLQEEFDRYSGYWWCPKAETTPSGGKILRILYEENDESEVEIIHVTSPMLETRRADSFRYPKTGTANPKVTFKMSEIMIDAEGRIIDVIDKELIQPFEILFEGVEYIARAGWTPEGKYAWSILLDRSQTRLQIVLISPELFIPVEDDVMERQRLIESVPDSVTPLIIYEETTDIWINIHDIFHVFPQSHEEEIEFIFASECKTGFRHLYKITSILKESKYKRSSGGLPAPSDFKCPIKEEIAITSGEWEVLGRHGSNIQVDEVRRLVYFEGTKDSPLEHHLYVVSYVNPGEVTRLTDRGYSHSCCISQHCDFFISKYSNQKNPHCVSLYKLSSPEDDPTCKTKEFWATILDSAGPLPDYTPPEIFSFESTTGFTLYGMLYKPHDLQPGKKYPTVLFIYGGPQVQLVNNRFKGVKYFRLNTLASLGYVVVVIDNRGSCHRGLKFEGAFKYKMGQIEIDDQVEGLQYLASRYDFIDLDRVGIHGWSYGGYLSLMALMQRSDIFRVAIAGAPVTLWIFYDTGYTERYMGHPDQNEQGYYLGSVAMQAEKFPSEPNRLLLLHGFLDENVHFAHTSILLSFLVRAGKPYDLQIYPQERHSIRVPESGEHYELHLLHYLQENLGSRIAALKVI", "UniProt Q86TI2": "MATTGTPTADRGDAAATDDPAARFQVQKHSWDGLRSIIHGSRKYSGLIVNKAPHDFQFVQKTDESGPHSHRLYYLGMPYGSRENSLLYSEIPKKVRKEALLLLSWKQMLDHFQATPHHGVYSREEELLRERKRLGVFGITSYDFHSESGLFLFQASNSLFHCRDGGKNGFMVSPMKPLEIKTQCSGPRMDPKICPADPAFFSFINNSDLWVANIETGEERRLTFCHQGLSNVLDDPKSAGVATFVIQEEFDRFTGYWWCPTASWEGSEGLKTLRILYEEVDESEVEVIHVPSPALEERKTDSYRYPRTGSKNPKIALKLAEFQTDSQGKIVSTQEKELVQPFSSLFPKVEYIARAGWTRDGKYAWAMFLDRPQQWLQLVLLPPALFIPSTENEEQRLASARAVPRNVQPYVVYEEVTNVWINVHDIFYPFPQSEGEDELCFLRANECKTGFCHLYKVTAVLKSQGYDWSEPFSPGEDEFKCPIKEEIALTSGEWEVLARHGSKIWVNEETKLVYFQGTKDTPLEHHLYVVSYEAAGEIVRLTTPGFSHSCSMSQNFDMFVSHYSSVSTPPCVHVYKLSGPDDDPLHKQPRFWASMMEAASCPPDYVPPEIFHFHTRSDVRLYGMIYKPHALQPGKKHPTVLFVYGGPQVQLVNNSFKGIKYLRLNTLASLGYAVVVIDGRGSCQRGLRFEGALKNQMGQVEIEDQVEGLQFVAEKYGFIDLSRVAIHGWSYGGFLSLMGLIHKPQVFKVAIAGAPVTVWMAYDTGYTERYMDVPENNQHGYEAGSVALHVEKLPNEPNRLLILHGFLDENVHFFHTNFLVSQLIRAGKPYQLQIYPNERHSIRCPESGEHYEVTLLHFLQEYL", "UniProt Q9Y315": "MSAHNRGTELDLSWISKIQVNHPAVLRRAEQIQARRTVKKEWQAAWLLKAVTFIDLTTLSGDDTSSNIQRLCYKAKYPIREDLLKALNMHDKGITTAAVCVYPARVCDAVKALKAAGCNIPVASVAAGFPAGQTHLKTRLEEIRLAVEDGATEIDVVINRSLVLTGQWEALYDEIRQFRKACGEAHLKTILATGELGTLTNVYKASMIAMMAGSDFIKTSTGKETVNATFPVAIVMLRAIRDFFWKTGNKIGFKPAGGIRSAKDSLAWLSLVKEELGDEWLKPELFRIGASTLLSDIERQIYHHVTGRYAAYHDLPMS"}, "source": "the supplement of paper PMC7666118", "note": "This is one part of the list.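 How the source made its calls: active = dose-dependent thermal stabilisation significant by F-test of dose-response against flat model at 10% FDR; inactive = not significant.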"}
{"compound": "Nc1nc2c(ncn2[C@@H]2O[C@H](COP(=O)(O)OP(=O)(O)OP(=O)(O)O)[C@@H](O)[C@H]2O)c(=O)[nH]1", "assay": "dose-dependent thermal stabilisation call (2D-TPP, DLPTP, 10% FDR) (binary (1 = stabilised)); higher = stabilised by the compound", "details": "system: Jurkat gel-filtered lysate; concentration range 1-500 µM"}
{"target": "DLAT (UniProt P10515)", "dose-dependent thermal stabilisation call": "inactive: 0"}
{"target": "CWF19L2 (UniProt Q2TBE0)", "dose-dependent thermal stabilisation call": "inactive: 0"}
{"target": "DVL2 (UniProt O14641)", "dose-dependent thermal stabilisation call": "inactive: 0"}
{"target": "CUTC (UniProt Q9NTM9)", "dose-dependent thermal stabilisation call": "inactive: 0"}
{"target": "DDI2 (UniProt Q5TDH0)", "dose-dependent thermal stabilisation call": "inactive: 0"}
{"target": "DCAF5 (UniProt Q96JK2)", "dose-dependent thermal stabilisation call": "inactive: 0"}
{"target": "DPP8 (UniProt Q6V1X1)", "dose-dependent thermal stabilisation call": "active: 1"}
{"target": "DPP9 (UniProt Q86TI2)", "dose-dependent thermal stabilisation call": "inactive: 0"}
{"target": "DERA (UniProt Q9Y315)", "dose-dependent thermal stabilisation call": "inactive: 0"}
